Data taken from the supplement of paper PMC12819154, “High-throughput peptide-centric local stability assay extends protein–ligand identification to membrane proteins, tissues and bacteria” (Nature Structural & Molecular Biology, 2025).
This is one part of the list. Most values lie at the level of the controls, where differences are scatter.

By UniProt entry, the sequences of proteins in these tests, tags left out. Where a name states a change or a piece, a line headed by the entry shows the natural chain unless it says otherwise.
UniProt Q93075: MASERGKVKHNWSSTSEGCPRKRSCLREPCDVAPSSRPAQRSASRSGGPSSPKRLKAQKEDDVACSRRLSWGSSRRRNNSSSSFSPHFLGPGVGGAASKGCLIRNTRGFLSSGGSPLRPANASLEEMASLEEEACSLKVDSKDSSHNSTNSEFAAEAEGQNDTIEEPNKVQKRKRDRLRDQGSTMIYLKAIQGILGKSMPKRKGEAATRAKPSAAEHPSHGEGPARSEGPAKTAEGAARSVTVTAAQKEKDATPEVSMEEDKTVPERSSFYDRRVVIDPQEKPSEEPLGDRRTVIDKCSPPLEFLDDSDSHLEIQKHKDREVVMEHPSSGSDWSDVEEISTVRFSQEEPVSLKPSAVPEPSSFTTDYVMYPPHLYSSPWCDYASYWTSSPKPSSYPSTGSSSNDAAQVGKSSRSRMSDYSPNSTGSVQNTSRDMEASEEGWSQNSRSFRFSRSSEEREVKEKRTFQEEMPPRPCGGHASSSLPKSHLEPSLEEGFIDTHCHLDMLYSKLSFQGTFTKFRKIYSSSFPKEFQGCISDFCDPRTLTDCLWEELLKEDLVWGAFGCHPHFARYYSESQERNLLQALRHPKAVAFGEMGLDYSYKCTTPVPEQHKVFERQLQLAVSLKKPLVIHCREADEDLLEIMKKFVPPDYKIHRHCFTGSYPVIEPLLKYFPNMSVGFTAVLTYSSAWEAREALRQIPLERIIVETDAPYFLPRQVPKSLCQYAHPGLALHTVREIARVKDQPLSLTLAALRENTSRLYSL
UniProt Q96AP4: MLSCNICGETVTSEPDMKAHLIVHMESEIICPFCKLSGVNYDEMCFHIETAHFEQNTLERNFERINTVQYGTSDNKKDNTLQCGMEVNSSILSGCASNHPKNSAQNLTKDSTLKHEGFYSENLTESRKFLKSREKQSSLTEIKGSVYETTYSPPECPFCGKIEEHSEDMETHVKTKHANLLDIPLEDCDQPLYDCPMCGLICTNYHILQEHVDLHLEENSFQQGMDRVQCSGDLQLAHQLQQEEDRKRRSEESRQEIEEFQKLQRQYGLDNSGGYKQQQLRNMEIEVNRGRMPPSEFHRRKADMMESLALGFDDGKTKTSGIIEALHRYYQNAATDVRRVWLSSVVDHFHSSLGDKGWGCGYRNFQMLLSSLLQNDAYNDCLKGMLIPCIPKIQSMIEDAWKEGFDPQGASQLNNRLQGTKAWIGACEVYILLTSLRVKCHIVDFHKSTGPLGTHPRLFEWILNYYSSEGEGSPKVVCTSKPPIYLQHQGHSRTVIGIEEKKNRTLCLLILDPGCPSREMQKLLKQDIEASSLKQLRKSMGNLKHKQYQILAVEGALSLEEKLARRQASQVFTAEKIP
UniProt Q96CW6: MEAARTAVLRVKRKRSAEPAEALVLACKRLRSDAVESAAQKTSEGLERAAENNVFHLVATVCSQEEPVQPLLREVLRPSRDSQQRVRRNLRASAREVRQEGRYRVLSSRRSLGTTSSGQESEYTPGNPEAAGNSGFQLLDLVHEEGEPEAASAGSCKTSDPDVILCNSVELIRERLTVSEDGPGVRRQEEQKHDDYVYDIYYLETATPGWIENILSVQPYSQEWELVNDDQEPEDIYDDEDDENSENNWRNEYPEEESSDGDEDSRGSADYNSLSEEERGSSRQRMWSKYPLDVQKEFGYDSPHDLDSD
UniProt Q96A65: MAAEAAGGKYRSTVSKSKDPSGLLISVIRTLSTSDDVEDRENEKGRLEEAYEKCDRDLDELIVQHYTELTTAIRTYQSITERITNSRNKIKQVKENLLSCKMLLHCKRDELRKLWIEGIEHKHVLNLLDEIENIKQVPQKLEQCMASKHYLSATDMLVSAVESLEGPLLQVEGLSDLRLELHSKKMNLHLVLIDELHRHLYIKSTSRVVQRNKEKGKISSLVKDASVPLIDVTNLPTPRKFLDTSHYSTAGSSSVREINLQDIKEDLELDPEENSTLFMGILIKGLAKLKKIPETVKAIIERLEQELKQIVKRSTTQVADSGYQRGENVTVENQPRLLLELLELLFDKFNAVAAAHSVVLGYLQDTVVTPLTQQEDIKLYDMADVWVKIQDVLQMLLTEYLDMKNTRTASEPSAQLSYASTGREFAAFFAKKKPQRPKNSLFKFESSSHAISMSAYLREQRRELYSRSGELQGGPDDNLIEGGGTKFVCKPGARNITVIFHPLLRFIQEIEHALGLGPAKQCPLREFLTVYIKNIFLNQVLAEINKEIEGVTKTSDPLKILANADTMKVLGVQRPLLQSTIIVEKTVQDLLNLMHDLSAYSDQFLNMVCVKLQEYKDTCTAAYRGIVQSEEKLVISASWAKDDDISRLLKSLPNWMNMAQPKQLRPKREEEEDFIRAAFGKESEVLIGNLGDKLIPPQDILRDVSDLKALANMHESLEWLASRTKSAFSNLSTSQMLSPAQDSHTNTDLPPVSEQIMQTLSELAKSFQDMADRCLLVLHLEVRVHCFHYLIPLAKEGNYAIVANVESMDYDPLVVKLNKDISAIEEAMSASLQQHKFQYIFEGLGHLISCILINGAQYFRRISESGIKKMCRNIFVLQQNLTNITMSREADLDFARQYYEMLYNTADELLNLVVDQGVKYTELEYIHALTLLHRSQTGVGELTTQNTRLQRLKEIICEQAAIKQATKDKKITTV
UniProt Q96EK9: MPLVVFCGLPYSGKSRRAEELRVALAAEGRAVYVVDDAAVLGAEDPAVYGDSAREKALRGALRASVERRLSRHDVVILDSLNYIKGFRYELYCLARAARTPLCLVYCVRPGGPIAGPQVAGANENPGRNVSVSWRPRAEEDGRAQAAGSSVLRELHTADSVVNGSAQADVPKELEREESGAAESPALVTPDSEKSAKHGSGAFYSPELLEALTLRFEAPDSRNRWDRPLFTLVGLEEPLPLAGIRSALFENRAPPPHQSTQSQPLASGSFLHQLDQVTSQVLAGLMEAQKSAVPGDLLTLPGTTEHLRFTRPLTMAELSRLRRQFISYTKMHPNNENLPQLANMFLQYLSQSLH
UniProt Q96A73: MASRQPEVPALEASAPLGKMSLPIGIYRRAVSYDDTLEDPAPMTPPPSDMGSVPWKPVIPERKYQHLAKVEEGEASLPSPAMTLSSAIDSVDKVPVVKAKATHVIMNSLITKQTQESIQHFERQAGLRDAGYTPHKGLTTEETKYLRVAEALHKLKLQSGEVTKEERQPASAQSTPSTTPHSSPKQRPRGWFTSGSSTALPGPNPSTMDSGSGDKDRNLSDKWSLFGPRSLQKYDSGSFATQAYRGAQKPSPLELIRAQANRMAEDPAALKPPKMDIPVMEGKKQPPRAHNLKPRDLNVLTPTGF
UniProt Q96CS3: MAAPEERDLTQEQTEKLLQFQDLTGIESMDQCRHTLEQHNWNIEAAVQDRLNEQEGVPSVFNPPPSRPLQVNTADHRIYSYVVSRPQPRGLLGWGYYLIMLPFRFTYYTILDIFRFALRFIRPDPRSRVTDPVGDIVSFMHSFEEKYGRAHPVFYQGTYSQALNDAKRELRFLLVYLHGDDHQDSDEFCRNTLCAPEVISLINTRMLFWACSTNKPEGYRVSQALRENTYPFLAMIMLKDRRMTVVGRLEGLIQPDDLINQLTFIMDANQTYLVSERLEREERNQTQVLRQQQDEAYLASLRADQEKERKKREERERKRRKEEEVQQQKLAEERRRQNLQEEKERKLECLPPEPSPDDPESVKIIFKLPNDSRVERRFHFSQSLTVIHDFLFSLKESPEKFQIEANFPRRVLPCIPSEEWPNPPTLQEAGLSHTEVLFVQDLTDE
UniProt Q92966: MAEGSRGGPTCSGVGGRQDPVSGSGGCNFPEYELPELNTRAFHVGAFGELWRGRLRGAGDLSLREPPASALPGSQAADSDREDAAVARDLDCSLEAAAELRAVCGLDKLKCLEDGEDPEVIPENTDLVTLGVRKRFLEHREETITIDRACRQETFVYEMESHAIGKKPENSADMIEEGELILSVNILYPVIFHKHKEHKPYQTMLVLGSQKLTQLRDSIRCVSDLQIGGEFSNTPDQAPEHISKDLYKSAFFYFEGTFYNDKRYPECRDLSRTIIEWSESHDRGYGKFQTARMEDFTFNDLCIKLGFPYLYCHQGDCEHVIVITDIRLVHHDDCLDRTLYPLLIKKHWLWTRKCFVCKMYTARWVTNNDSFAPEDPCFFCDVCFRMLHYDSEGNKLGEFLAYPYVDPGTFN
UniProt Q96D09: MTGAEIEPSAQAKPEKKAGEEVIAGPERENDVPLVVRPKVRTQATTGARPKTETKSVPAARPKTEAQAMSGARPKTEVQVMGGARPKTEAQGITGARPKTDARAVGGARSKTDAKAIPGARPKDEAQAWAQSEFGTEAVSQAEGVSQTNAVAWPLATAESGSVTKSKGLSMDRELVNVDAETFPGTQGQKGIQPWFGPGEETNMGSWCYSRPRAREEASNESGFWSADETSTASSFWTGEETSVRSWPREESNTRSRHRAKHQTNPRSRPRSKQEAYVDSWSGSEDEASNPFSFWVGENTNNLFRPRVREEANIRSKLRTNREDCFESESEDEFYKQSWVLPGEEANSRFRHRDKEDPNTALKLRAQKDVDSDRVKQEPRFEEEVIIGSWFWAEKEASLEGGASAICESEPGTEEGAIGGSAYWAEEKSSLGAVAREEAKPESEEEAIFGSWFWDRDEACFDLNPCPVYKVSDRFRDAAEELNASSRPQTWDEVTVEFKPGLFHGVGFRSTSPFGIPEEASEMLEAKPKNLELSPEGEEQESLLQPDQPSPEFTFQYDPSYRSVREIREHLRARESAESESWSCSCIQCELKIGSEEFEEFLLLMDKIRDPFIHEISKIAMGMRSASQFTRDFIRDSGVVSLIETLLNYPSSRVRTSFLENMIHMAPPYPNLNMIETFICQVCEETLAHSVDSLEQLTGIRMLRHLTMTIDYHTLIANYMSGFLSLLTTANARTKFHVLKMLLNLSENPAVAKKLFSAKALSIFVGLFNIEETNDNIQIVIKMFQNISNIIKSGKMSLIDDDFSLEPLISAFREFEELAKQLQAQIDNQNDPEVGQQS
UniProt Q96EP1: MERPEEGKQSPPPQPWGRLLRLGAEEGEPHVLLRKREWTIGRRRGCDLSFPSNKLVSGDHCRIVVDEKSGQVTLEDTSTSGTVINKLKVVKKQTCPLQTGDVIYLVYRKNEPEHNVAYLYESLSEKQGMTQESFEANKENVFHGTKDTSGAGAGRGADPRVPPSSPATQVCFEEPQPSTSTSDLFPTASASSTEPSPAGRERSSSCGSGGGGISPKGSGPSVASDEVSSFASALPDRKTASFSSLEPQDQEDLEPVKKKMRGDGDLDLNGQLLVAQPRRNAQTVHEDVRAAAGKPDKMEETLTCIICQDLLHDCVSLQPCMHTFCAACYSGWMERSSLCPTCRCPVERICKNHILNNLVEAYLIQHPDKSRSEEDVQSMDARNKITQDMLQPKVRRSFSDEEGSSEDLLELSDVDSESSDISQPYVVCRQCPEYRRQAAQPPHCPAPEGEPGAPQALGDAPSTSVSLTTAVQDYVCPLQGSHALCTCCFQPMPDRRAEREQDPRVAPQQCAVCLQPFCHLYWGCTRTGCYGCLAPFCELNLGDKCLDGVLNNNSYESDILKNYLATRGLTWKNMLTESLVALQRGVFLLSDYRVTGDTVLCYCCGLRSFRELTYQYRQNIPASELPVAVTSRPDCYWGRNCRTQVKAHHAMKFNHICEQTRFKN

compound: Cc1nc(Nc2ncc(C(=O)Nc3c(C)cccc3Cl)s2)cc(N2CCN(CCO)CC2)n1 [dasatinib]; test: log2 fold change of tryptic peptide abundance, ligand vs vehicle (limited proteolysis) (log2 ratio); higher = more trypsin-susceptible (destabilized); settings: ligand concentration: 5 uM; sample: K562 cleared lysate

Target | log2 fold change
TATDN2 (peptide sequence: VVIDPQEKPSEEPLGDRR, peptide start residue: 275) (UniProt Q93075) | 0.205
ZUP1 (peptide sequence: EKQSSLTEIK, peptide start residue: 134) (UniProt Q96AP4) | 0.27
SLC7A6OS (peptide sequence: RSAEPAEALVLACKR, peptide start residue: 15) (UniProt Q96CW6) | -0.26
EXOC4 (peptide sequence: ESEVLIGNLGDK, peptide start residue: 682) (UniProt Q96A65) | -0.161
KTI12 (peptide sequence: FTRPLTMAELSR, peptide start residue: 309) (UniProt Q96EK9) | -0.142
KIAA1191 (peptide sequence: GAQKPSPLELIR, peptide start residue: 246) (UniProt Q96A73) | -0.23
FAF2 (peptide sequence: QQQDEAYLASLRADQEK, peptide start residue: 291) (UniProt Q96CS3) | -0.303
SNAPC3 (peptide sequence: AFHVGAFGELWR, peptide start residue: 41) (UniProt Q92966) | -0.152
GPRASP2 (peptide sequence: TQATTGARPK, peptide start residue: 42) (UniProt Q96D09) | 0.478
CHFR (peptide sequence: LVSGDHCR, peptide start residue: 55) (UniProt Q96EP1) | 0.225
